Experimental data: PubChem BioAssay AID2551 (National Center for Advancing Translational Sciences (NCATS), 2010)
Hit rate of the full screen: of about 310,000 compounds, about 17,000 (5.5%) were called active. Inconclusive means that the source gave no clear call. Such entries were picked first, then a sample of the others. Calls come from the whole dose curve; as a rule, active = well fitted inhibition curve with a large enough effect; inconclusive = small, poorly fitted or top-dose-only effect, or effect the other way; inactive = no such curve, though single readings can be large or run the other way. A potency beside an inconclusive call is a rough fit, not a confirmed value.

Chains of the proteins cited; added tags and fusions are not shown. Lines headed by an entry give the natural chain unless they say otherwise; changes in a name come on top.
UniProt P51450: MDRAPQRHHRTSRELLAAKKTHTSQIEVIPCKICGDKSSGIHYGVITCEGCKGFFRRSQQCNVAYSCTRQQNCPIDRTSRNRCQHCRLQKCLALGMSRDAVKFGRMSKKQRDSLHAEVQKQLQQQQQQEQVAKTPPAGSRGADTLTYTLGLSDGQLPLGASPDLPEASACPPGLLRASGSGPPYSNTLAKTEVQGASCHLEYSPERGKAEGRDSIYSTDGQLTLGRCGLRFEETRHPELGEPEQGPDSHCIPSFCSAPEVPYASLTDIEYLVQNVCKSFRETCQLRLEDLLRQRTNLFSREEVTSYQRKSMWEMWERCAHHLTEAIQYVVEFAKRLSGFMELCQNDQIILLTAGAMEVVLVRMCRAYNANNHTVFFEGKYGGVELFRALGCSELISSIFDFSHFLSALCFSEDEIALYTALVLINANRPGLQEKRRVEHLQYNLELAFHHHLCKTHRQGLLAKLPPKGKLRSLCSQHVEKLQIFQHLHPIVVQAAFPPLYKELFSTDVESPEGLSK

The compounds below were run against Nuclear receptor ROR-gamma (Mus musculus) (UniProt P51450) (assay: qHTS for inhibitors of ROR gamma transcriptional activity). Conditions: Drosophila S2 Gal4-RORgamma UAS-luciferase reporter, 20 h; activity change, negative = inhibition: at 53.6 µM (top of the series).
In short: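 Drosophila Schneider cells stably carrying a metallothionein-driven Gal4 DBD–ROR gamma fusion and a UAS-Photinus luciferase reporter were exposed to compound for 1 hr, then induced with copper sulfate (700 uM final) for 20 hr at ambient temperature before luminescence reading.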
% is set by controls: 0 for no effect and ±100 for the full control effect; potency is the fitted concentration of half-maximal effect.
Note: nearly all actives have a fitted effect of over 60% in size.

Compound | Potency | activity change, negative = inhibition
Clc1cnc(N/N=C/c2cccs2)c(Cl)c1 | active: 7.94 µM | 
CC(C)C[C@H](NC(=O)[C@H](Cc1ccccc1)C[C@@H](O)[C@H](Cc1ccccc1)NC(=O)OC(C)(C)C)C(=O)N[C@@H](Cc1ccccc1)C(N)=O | inconclusive: 20 µM [inhibitor, single point] | 
O=C(/C=C\c1cn(-c2ccccc2)nc1-c1cccs1)N1CCOCC1 | inconclusive: 35.5 µM [activator, single point] | 
Cc1nc(=S)n(-c2ccccc2)[nH]1 | inconclusive: 35.5 µM [inhibitor, single point] | 
CCCCNC(=O)CCn1c(=S)[nH]c2cc3c(cc2c1=O)OCO3 |  | inactive: -20.7%
CCNC(=S)Nc1ccc(OC(F)(F)F)cc1 | active: 8.91 µM | 
COc1ccc(C2C(=O)N(C3CCCCC3)CC(=O)N2Cc2ccco2)cc1 (configuration not stated) |  | inactive: -5.11% [at 0.365 µM]
COc1cc(C(=O)Nc2cccc(-c3nnc(-c4ccco4)o3)c2)ccc1OC(C)=O | inconclusive: 0.794 µM [inhibitor, full curve, poor fit] | 
COc1ccc(/C=N/NC(=O)Nc2cccc3nsnc23)cc1 |  | inactive: 6.29% [at 10 µM]
COc1ccc(C(=O)Nc2nnc(Cc3ccccc3)s2)c(OC)c1 | inconclusive: 14.1 µM [activator, partial curve] | 
Cc1cc(/C=C2\SC(=S)N(Cc3ccco3)C2=O)c(C)n1-c1cccnc1 | inconclusive: 15.8 µM [activator, partial curve] | 
CCOC(=O)C1(CC2CC2)CCN(Cc2cn(C)c3ccccc23)CC1 | inconclusive: 20 µM [inhibitor, single point] | 
COc1cc(/C=N/NC(=O)c2ccc(COc3cc(C)ccc3C(C)C)cc2)cc(OC)c1O | inconclusive: 17.8 µM [inhibitor, single point] | 
Cn1ncc(SCc2ccccc2)c(Cl)c1=O | inconclusive: 2.82 µM [activator, partial curve] | 
Cc1cnc(NC(=O)COc2ccc3c(c2)CCC3)s1 | inconclusive: 11.2 µM [inhibitor, single point] | 
COCCN(CCOC)C(=O)c1ccc(NS(=O)(=O)c2ccc3[nH]c(=O)[nH]c3c2)cc1 |  | inactive: 11.2%
O=c1c2ccccc2nc(-c2ccc(Cl)cc2Cl)n1CCCn1ccnc1 |  | inactive: -23.6%
O=C(NC1CCCCCC1)c1cc2ccccc2oc1=O | active: 10 µM | 
O=C(NCc1ccco1)c1ccccc1Nc1ccc(F)cc1 | inconclusive: 12.6 µM [activator, partial curve] | 
Cc1cc2ncc(-c3ccccc3)nc2cc1C | inconclusive: 35.5 µM [inhibitor, single point] | 
CN(C(=O)c1cccnc1)c1nnc(-c2ccccn2)s1 | inconclusive: 10 µM [activator, partial curve, poor fit] | 
O=C(CCn1c(=O)oc2ccccc21)Nc1cccc(Cl)c1 |  | inactive: 7.89%
CC(=O)c1cccc(NC(=O)CC2S/C(=N/N=C/c3cccs3)NC2=O)c1 (configuration not stated) | inconclusive: 12.6 µM [inhibitor, partial curve] | 
Clc1ccc(-c2ccc(C=Nc3ccc(N4CCOCC4)cc3)o2)c(Cl)c1 |  | inactive: -22%

Compound | Potency | activity change, negative = inhibition
Cc1cccc(NC(=S)N2CCC(NC(=O)c3cccc(F)c3)CC2)c1 | inconclusive: 1.58 µM [inhibitor, partial curve] | 
Cc1ccc(NC2=C(Cl)C(=O)c3ccccc3C2=O)cc1 | inconclusive: 35.5 µM [inhibitor, single point] | 
COc1ccc(/C=C/C(=O)Nc2ccc(C34CC5CC(CC(O)(C5)C3)C4)cc2)cc1OC | inconclusive: 0.224 µM [inhibitor, full curve] | 
Cc1ccc2cc(C)c3nnc(SCC(=O)NCc4ccco4)n3c2c1 |  | inactive: 11.5%
O=C(N/N=C/c1ccccn1)c1cc(-c2ccc(Br)s2)[nH]n1 | active: 17.8 µM | 
COc1ccc(N2CCN(C(=O)CSc3nnc4c(C)cc5cc(C)ccc5n34)CC2)cc1 | inconclusive: 35.5 µM [activator, single point] | 
COc1ccc(-c2c(C)n([O-])c3c([n+]2=O)CCCC3)cc1 |  | inactive: -0.557%
Cc1cc(/C=N/O)c(C)n1-c1ccccc1 |  | inactive: -9.33%
CC(C)c1ccc(/C=C2\SC(=O)N(CC(=O)NCCCn3ccnc3)C2=O)cc1 | inconclusive: 28.2 µM [inhibitor, single point] | 
CCCc1ccc(-c2ccc(F)c(N)c2)nc1 | active: 4.47 µM | 
Cc1ccc(C)c(NC(=O)C2CC(=O)N(C3CCCCC3)C2)c1 (configuration not stated) |  | inactive: 18%
Nc1ncccc1OCc1ccc(Br)cc1 | inconclusive: 6.31 µM [activator, partial curve] | 
Cc1ccc(NC(=O)CN(Cc2ccco2)Cc2ccccc2O)cc1C | inconclusive: 17.8 µM [activator, single point] | 
OC(CCc1cccc(Cl)c1)c1cccs1 (configuration not stated) |  | inactive: 18.4%
CN(C)c1nc(Nc2ccc(Cl)cc2)nc(OCC#N)n1 | inconclusive: 14.1 µM [activator, single point] | 
CC(C)[C@@H](CO)NC(=O)c1ccc2c3n(nc2c1)-c1ccccc1CO3 | inconclusive: 10 µM [inhibitor, partial curve] | 
COc1ccc(NS(=O)(=O)c2cccc(N/C(=N\S(=O)(=O)c3ccccc3)c3ccc(F)cc3)c2)cc1 | inconclusive: 2.51 µM [activator, full curve] | 
CC(C)Cc1nc2oc3c(NCC(C)O)ncnc3c2c2c1CCCC2 (configuration not stated) |  | inactive: 18.7%
C=CCn1c(-c2ccc(OC)c(OC)c2)cs/c1=N\c1ccccn1 | inconclusive: 12.6 µM [inhibitor, partial curve, poor fit] | 
CCCc1ccc(C2C3=C(CC(C)(C)CC3=O)NC3=C2C(=O)c2ccccc23)cc1 (configuration not stated) |  | inactive: -17.1%
COc1cc(C(=O)Nc2ccc(NC(C)=O)cc2)ccc1OCc1ccccc1 |  | inactive: 0.199%
O=C1N=c2ccccc2=C1c1sc(Nc2cccc(O)c2)nc1O | inconclusive: 4.47 µM [activator, single point] | 
O=C(Cn1c(=O)c2sccc2n(Cc2ccc([N+](=O)[O-])cc2)c1=O)NCCc1ccccc1 | inconclusive: 12.6 µM [activator, partial curve] | 

Some of these compounds in order of molar mass, ascending:
Compound | Potency | activity change, negative = inhibition
CCCc1ccc(-c2ccc(F)c(N)c2)nc1 | active: 4.47 µM | 
Nc1ncccc1OCc1ccc(Br)cc1 | inconclusive: 6.31 µM [activator, partial curve] | 
CC(C)c1ccc(/C=C2\SC(=O)N(CC(=O)NCCCn3ccnc3)C2=O)cc1 | inconclusive: 28.2 µM [inhibitor, single point] | 
